Results as given in PMC4961226.
These are yes or no findings as the source states them, for the method shown. Binding seen in cells or lysates may run through a third protein. For part of these data: Binding can be weak; no strength is given.

How the values were obtained:
[1] = biological target: CD95^1–175 (GFP-fused) (human); experiment: co-IP; HEK cells transiently co-transfected with GFP-fused CD95 constructs and wild-type PLCγ1, stimulated with CD95L (100 ng/mL); CD95 protein complex immunoprecipitated from lysates, immunoblotting
[2] = biological target: CD95^1–210 (GFP-fused) (human); experiment: as above
[3] = biological target: intracellular region of CD95 (amino acids 175–319) fused to F2 (human); experiment: split reporter; Renilla luciferase-based protein fragment complementation assay (RLuc-PCA): fragments F1 and F2 fused to PLCγ1 and CD95 domains, co-transfected in HEK cells, luminescence

| binding [1] | binding [2] | binding [3] | Binder |
| --- | --- | --- | --- |
| no binding | binds |  | wild-type PLCγ1 (enzyme, UniProt P19174 1-1290) MAGAASPCANGCGPGAPSDAEVLHLCRSLEVGTVMTLFYSKKSQRPERKTFQVKLETRQITWSRGADKIEGAIDIREIKEIRPGKTSRDFDRYQEDPAFRPDQSHCFVILYGMEFRLKTLSLQATSEDEVNMWIKGLTWLMEDTLQAPTPLQIERWLRKQFYSVDRNREDRISAKDLKNMLSQVNYRVPNMRFLRERLTDLEQRSGDITYGQFAQLYRSLMYSAQKTMDLPFLEASTLRAGERPELCRVSLPEFQQFLLDYQGELWAVDRLQVQEFMLSFLRDPLREIEEPYFFLDEFVTFLFSKENSVWNSQLDAVCPDTMNNPLSHYWISSSHNTYLTGDQFSSESSLEAYARCLRMGCRCIELDCWDGPDGMPVIYHGHTLTTKIKFSDVLHTIKEHAFVASEYPVILSIEDHCSIAQQRNMAQYFKKVLGDTLLTKPVEISADGLPSPNQLKRKILIKHKKLAEGSAYEEVPTSMMYSENDISNSIKNGILYLEDPVNHEWYPHYFVLTSSKIYYSEETSSDQGNEDEEEPKEVSSSTELHSNEKWFHGKLGAGRDGRHIAERLLTEYCIETGAPDGSFLVRESETFVGDYTLSFWRNGKVQHCRIHSRQDAGTPKFFLTDNLVFDSLYDLITHYQQVPLRCNEFEMRLSEPVPQTNAHESKEWYHASLTRAQAEHMLMRVPRDGAFLVRKRNEPNSYAISFRAEGKIKHCRVQQEGQTVMLGNSEFDSLVDLISYYEKHPLYRKMKLRYPINEEALEKIGTAEPDYGALYEGRNPGFYVEANPMPTFKCAVKALFDYKAQREDELTFIKSAIIQNVEKQEGGWWRGDYGGKKQLWFPSNYVEEMVNPVALEPEREHLDENSPLGDLLRGVLDVPACQIAIRPEGKNNRLFVFSISMASVAHWSLDVAADSQEELQDWVKKIREVAQTADARLTEGKIMERRKKIALELSELVVYCRPVPFDEEKIGTERACYRDMSSFPETKAEKYVNKAKGKKFLQYNRLQLSRIYPKGQRLDSSNYDPLPMWICGSQLVALNFQTPDKPMQMNQALFMTGRHCGYVLQPSTMRDEAFDPFDKSSLRGLEPCAISIEVLGARHLPKNGRGIVCPFVEIEVAGAEYDSTKQKTEFVVDNGLNPVWPAKPFHFQISNPEFAFLRFVVYEEDMFSDQNFLAQATFPVKGLKTGYRAVPLKNNYSEDLELASLLIKIDIFPAKENGDLSPFSGTSLRERGSDASGQLFHGRAREGSFESRYQQPFEDFRISQEHLADHFDSRERRAPRRTRVNGDNRL |
|  |  | binds | PLCγ1-SH3-F1 (domain or fragment, UniProt P19174 790-851) PTFKCAVKALFDYKAQREDELTFIKSAIIQNVEKQEGGWWRGDYGGKKQLWFPSNYVEEMVN |
